Measured data: PubChem BioAssay AID504764 (Drosophila RNAi Screening Center, 2011)
The screen tested about 22,000 reagents; this is an unselected part of those with a known target gene and a result. Over the whole deposit, 403 (1.9%) are marked active. 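Unnormalised raw counts per well; ratio z-scores behind the hit calls and whether each hit raises or lowers signal are not deposited.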 Not stated in the record: the amount of reagent.

Purpose: 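Genes whose knock-down alters Notch-dependent transcription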 (primary screen)
System: Drosophila Kc167 cells
Reagents: long dsRNA against Drosophila genes
Duration: about 5 days (4 days dsRNA, then 24 h after transfection)
Conditions: transfection of constitutively active membrane-tethered Notch lacking the extracellular domain, read 24 h later
Measured: 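Light from a Notch-responsive E(spl)m3 luciferase reporter under active Notch, with control-promoter and no-Notch reporter wells to normalise; raw counts from paired wells a and b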
Scale: induced reporter light, run 1, well a and induced reporter light, run 1, well b: higher = more light from the Notch target reporter with active Notch; control promoter light, run 1, well a and control promoter light, run 1, well b: higher = more light from the viral control promoter (cell number, transfection, viability); uninduced reporter light, run 1, well a: higher = more light from the Notch target reporter without active Notch
Call rule: 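Wells with low control signal or poorly matching duplicates excluded; duplicates averaged; per source plate, z beyond ±2 for induced/control log2 ratio or beyond ±1.8 for induced/uninduced marks a hit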
Calls: active = modifier hit (raised or lowered Notch signal); inactive = not a hit

| Gene | dsRNA | induced reporter light, run 1, well a | induced reporter light, run 1, well b | control promoter light, run 1, well a | control promoter light, run 1, well b | uninduced reporter light, run 1, well a | call |
| --- | --- | --- | --- | --- | --- | --- | --- |
| PTPMT1 | DRSC14235 | 1.46e5 | 1.65e5 | 1.87e5 | 1.70e5 | 12175 | inactive |
| Swt1 | DRSC20028 | 1.19e5 | 1.30e5 | 1.13e5 | 59360 | 11110 | inactive |
| CG13949 | DRSC00367 | 1.56e5 | 1.34e5 | 1.26e5 | 60575 | 12700 | inactive |
| Eh | DRSC16660 | 2.16e5 | 1.80e5 | 1.67e5 | 1.59e5 | 15515 | inactive |
| CG5084 | DRSC06913 | 25130 | 34035 | 33720 | 38955 | 4438 | inactive |
| Asx | DRSC05924 | 14140 | 13345 | 17060 | 13870 | 3190 | inactive |
| ppk18 | DRSC02216 | 1.14e5 | 1.51e5 | 70250 | 1.10e5 | 17855 | inactive |
| l(2)09851 | DRSC04858 | 1.49e5 | 1.52e5 | 1.45e5 | 1.58e5 | 11600 | inactive |
| Drsl6 | DRSC08161 | 1.04e5 | 1.13e5 | 2.47e5 | 1.64e5 | 4575 | inactive |
| Gyc32E | DRSC01154 | 82975 | 1.09e5 | 1.14e5 | 1.13e5 | 7565 | inactive |
| Pgls | DRSC19769 | 1.31e5 | 1.16e5 | 2.67e5 | 1.69e5 | 8505 | inactive |
| PPP4R2r | DRSC18695 | 1.44e5 | 1.29e5 | 3.05e5 | 2.82e5 | 9580 | inactive |
| Syp | DRSC13444 | 1.07e5 | 96450 | 1.20e5 | 97335 | 10482 | inactive |
| Syp | DRSC15286 | 1.60e5 | 1.63e5 | 1.73e5 | 2.03e5 | 13605 | inactive |
| Mul1 | DRSC08174 | 85435 | 96090 | 1.22e5 | 1.49e5 | 7340 | inactive |
| Ugt35E2 | DRSC16083 | 86325 | 80735 | 1.01e5 | 70730 | 3395 | inactive |
| CG5235 | DRSC10494 | 1.58e5 | 1.22e5 | 1.63e5 | 1.51e5 | 7305 | inactive |
| Hnf4 | DRSC01032 | 99980 | 1.22e5 | 1.73e5 | 1.43e5 | 10010 | inactive |
| Hnf4 | DRSC03344 | 1.75e5 | 1.61e5 | 2.46e5 | 2.45e5 | 14655 | inactive |
| eIF3d1 | DRSC16938 | 32460 | 28520 | 30925 | 28085 | 1760 | inactive |

An excerpt from above, showing only “control promoter light, run 1, well b”:
l(2)09851 [DRSC04858]: 1.58e5
Drsl6 [DRSC08161]: 1.64e5
